This note sets out measurements from patent publication US9493537B2 (STC.UNM, priority 2009, dated 2016).

The nature of this data set: general procedure: Fmoc solid-phase peptide synthesis; Sieber amide resin; PyBOP/DIEA (cyclisation). The settings on record: whole synthesis, scale of the general procedure 70 umol resin, side-chain lactam ring, sequence written open.

For the substance DOTA-Nle-CycMSHhex, the “final purity (method not given)” value is “greater than 95%”. This substance also gave an isolated yield (overall) of 30%.
